Results of single-concentration screens

Results are given as percent effect.
The controls that fix the scale are not given in the record; negative values are as filed.
This is an unselected part of the compounds tested.

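Whole-parasite assay of Trypanosoma brucei over 72 hours; the read-out is not stated. Concentration: 30 µM. Direction is inferred from retests: higher values go with stronger inhibition. Values scatter widely below zero; nearly all retest evidence comes from the higher of the two concentrations used. Of about 64,000 compounds tested this way, about 940 (1.5%) reached 50% or more in at least one test.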

structure: O=C(CN1C(=O)CCNC1=O)N1CCOC(c2ccc(F)cc2)C1 (stereo not given)
effect: -27.51%

structure: O=C(Cc1ccccc1Cl)Nc1cnn(C2CCOC2)c1 (stereo not given)
effect: -18.77%

structure: Cn1cc(CN2CCn3cc(Cn4cccn4)nc3C2)cn1.O=C(O)C(F)(F)F
effect: -16.73%

structure: [H][C@@]12CS(=O)(=O)C[C@]1([H])N(C(=O)c1csc(C)n1)CCN2c1ncccn1
effect: 27.46%

structure: Cn1cc(CN2CC[C@H](O)[C@@H]2Cc2ccccc2)cn1.O=C(O)C(F)(F)F
effect: 19.54%

structure: O=C(NCC1CCOC1)c1csc(Cc2ccccc2)n1 (stereo not given)
effect: -15.58%

structure: NC(=O)C1CCN(Cn2nc(-c3ccccc3)oc2=O)CC1
effect: 1.991%

structure: CCOc1nnc(CN(CC)CC(=O)Nc2c(F)cccc2F)s1
effect: -14.81%

structure: O=C(Cc1cnc(-c2c(Cl)cccc2Cl)s1)N1CCC2(CC1)OCCO2
effect: -34.49%

structure: O=C(c1cc[nH]n1)N1CCOCC2(C1)CN(c1ccccc1)C(=O)CO2 (stereo not given)
effect: -8.902%

structure: CCc1noc(C)c1C(=O)N1C[C@H](NS(C)(=O)=O)[C@@H](C2CC2)C1
effect: -15.46%

structure: CC(=O)Nc1ccc(S(=O)(=O)NC(=O)CCC2CCCO2)cc1 (stereo not given)
effect: 3.485%

structure: CCCc1noc(C(C)N(CC)Cc2ccco2)n1 (stereo not given)
effect: -21.91%

structure: O=C(Nc1ccc2c(c1)OCCO2)c1ccc(=O)[nH]n1
effect: -11.57%

structure: COc1cc2c(cc1OC)C(=O)C(Sc1nnc(C)o1)C2 (stereo not given)
effect: -4.859%

structure: COCCN(CC1CCCN(C2Cc3ccccc3C2)C1)C(=O)CSC (stereo not given)
effect: 2.031%

structure: COCCn1nc(C(=O)N(C)Cc2ccc3ccccc3c2)ccc1=O
effect: -23.31%

structure: CN(C)C1COC2(CCN(S(=O)(=O)c3ccc(F)cc3)CC2)C1.O=C(O)C(F)(F)F (stereo not given)
effect: -8.914%

structure: Cc1nc(N(C)C)ncc1C(=O)NCCc1csc(-c2ccncc2)n1
effect: 6.998%

structure: [H][C@@]12CC[C@H](Oc3ccccc3Cl)[C@]1([H])CN(C(=O)CN(C)C)C2
effect: 20.6%

structure: CCSc1ccc(C(C)NC(=O)CCS(C)(=O)=O)cc1 (stereo not given)
effect: 1.719%

structure: O=C(c1cc[nH]n1)N1CCc2ccc(S(=O)(=O)N3CCOCC3)cc2C1
effect: -21.9%

structure: Cc1cc(C(=O)N2CCCC3(COCCN(CCN(C)C)C3)C2)no1.O=C(O)C(F)(F)F.O=C(O)C(F)(F)F (stereo not given)
effect: 6.363%

structure: CC(=O)NCc1nnc2n1CCN(c1nc(C)nc3sccc13)CC2
effect: -22.93%

structure: CC(C)c1nc(C2CCCN2Cc2ccncc2Cl)no1 (stereo not given)
effect: -13.53%

structure: Cc1noc(C)c1S(=O)(=O)NCC(O)c1ccc2c(c1)CCO2 (stereo not given)
effect: -21.8%

structure: Cc1nc(C)n(CC2CCCN(Cc3cccc(C#N)c3)C2)n1 (stereo not given)
effect: -0.527%

structure: CN(C)S(=O)(=O)N1CCCC(c2ccncn2)C1 (stereo not given)
effect: -8.341%

structure: [H][C@@]12CS(=O)(=O)C[C@]1([H])N(S(=O)(=O)N1CCc3ccccc3C1)CCN2CC
effect: -40.4%

structure: Cc1nnc(C(C)Nc2cccc(COCCc3ccccc3)c2)o1 (stereo not given)
effect: -59.74%

structure: Cc1cc(C)n(CC2CCCN2C(=O)c2ccc3c(c2)OCCO3)n1 (stereo not given)
effect: -23.57%

structure: COc1ccc(OCCCN(C)C(=O)C2CCCN2C(N)=O)cc1 (stereo not given)
effect: -51.74%

structure: Cc1cc(C)cc(S(=O)(=O)NCC2CNCCOC2)c1 (stereo not given)
effect: -18.32%

structure: Cc1nn(C)cc1C(=O)N1CCCC(n2cncn2)C1 (stereo not given)
effect: -7.507%

2 of the entries, repeated:

- [H][C@@]12CC[C@H](Oc3ccccc3Cl)[C@]1([H])CN(C(=O)CN(C)C)C2 : 20.6%
- O=C(CN1C(=O)CCNC1=O)N1CCOC(c2ccc(F)cc2)C1 (stereo not given) : -27.51%

The values are deposited in ChEMBL (CHEMBL3988442, “University of Dundee, Small-Polar-MMV Screening Library” (2021)).